Test results: paper PMC8295262
Results are given in words; binding and its absence hold for the method and conditions named. Binding seen in cells or lysates may run through a third protein. Binding can be weak; no strength is given. Tags and fused reporters may be left off the sequences shown.

Target: T1, Flag-tagged C. elegans VHL-1 (C. elegans) (UniProt Q19213)
T1 sequence: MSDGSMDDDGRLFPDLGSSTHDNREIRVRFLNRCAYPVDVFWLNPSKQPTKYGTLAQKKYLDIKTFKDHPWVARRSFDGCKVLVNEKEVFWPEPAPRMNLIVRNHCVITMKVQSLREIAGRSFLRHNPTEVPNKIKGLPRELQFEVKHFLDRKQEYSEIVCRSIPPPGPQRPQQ
Test: co-IP; HEK293T cells co-transfected; lysis in IP buffer (20 mM Tris-HCl pH 7.5, 1% Triton X-100, 50 mM NaCl, 50 mM NaF, 15 mM Na4P2O7, 0.1 mM EDTA, 2 mM Na3VO4); Flag-tagged protein precipitated on anti-FLAG M2 affinity beads overnight at 4 °C; co-precipitate detected by blot with anti-Myc or anti-GFP

- binding: binds
Substance: DAF-15.EGFP (C. elegans)
